# “And” between values parts separate entries of the source, which are not always exact repeats. Identical values can stand only once. The list shows a part of the results.
# Legend:
# Assay in all cases: protein microarray (ProtoArray v5.0), streptavidin-Alexa Fluor 647
# Conditions in all cases: 3'-biotin; 20 mM Tris (pH 7.5), 5 mM MgCl2, 100 mM KCl, 0.1% Tween-20, A/T-rich and random oligonucleotide blockers; temperature not stated; high values mean tight binding
# [1] = system: FYVE, RhoGEF and PH domain-containing protein 2 (human)
# [2] = system: Ferritin heavy chain (human)
# [3] = system: G protein-coupled receptor kinase 6 (human)
# [4] = system: G1/S-specific cyclin-D1 (human)
# G6PC (human) = system: G6PC (human)
# [5] = system: GA-binding protein subunit beta-1 (human)
# GABPA (human) = system: GABPA (human)
# GABPB2 (human) = system: GABPB2 (human)
# GAMT (human) = system: GAMT (human)
# GAP43 (human) = system: GAP43 (human)
sequence,measurement,setting,value
GGTGACAGGGGTATGGGGAGGGG [G4-2 biotinylated (Ct1)],binding signal,[1],-0.392 z-score
same,binding signal,[2],-0.384 z-score
same,binding signal,[3],5.15 z-score
same,binding signal,[4],-0.39 z-score
same,binding signal,G6PC (human),-0.385 z-score
same,binding signal,[5],-0.388 z-score
same,binding signal,GABPA (human),-0.394 z-score
same,binding signal,GABPB2 (human),-0.39 z-score and -0.403 z-score
same,binding signal,GAMT (human),-0.375 z-score
same,binding signal,GAP43 (human),-0.392 z-score

# From paper PMC5996148
